Test results as given in patent US12371675B2, “Process and microorganism for synthesis of adipic acid from carboxylic acids” (THE GOVERNING COUNCIL OF THE UNIVERSITY OF TORONTO, priority 2015, dated 2025).
Some of these results come from one statement about several compounds together.

B1: EREDBC: 2-enoate reductase (ERED) from Bacillus coagulans 36D1 (protein)
chain: MKYKKLFETVKIRNVELKNRYAMAPMGPLGLADAEGGFNQRGIEYYTARARGGTALIITGVTFVDNEVEEHGMPNVPCPTHNPVHFVRTSKEMTERIHAYDSKIFLQMSAGFGRVTIPTNLGEYPPVAPSPIPHRWLDKTCRELTVEEIHSIVRKFGDGAFNAKRAGFDGVQIHAVHEGYLLDQFAIAFFNKRTDAYGGPLENRLRFAREIVEEIKQRCGEDFPVTLRFSPKSFIKDWREGALPGEEFEEKGRDLDEGIEAAKLLVSYGYDALDVDVGSYDSWWWSHPPMYQKKGLYIPYARLVKEAVDVPVLCAGRMDNPDLALAALEDGACDIISLGRPLLADPDYVNKLRIGQVADIRPCLSCHEGCMGRIQEYSSLGCAVNPAACREKEAALTPALKKKRVLIAGGGVAGCEAARVLALRGHEPVIFEKSNRLGGNLIPGGAPDFKEDDLALVAWYEHTLERLGVEIHLNTALTKEEILAANVDAVLIATGSNPKILPLDGKNKVFTAEDVLLDKVDAGQHVVIVGGGLVGCELALNLAEKGKDVSLVEMQDKLLAVNGPLCHANSDMLERLVPFKGVQVYTSSKIVDTTEKTAVVDVDGELREIEADSIVLAVGYSAEKSLYEDLKFEVADLHVVGDARKVANIMYAIWDAYEVAANL
B2: EREDCA: 2-enoate reductase (ERED) from Clostridium acetobutylicum DSM 1731 (protein)
chain: MNKYKKLFEPIKIGKCEIKNRFALAPMGPLGLADSEGGFNQRGIDYYTERAKGGTGLIITGVTFVDNEVEEHGMPNCPCPTHNPVQFVRTGREMTERIHAYNSKVFLQMSGGFGRVTIPTNLGEFPPVAPSPIQHRWLDKTCRELTVDEIKSIVKKFGEGAFNAKRAGFDGVQIHAVHEGYLIDQFAISLFNHRTDEYGGSLENRLRFAREIVEEIKNRCGEDFPVTLRYSPKSFIKDLRDGALPGEEFVEKGRDLDEGVEAAKLLVSYGYDALDTDVGSYDSWWWSHPPMYQEKGLYRKYAKLMKDTVDVPVICAGRMDDPDMALEAVENGTCDVISLGRPLLADPDYVNKLRSNKCKSIRPCISCQEGCMGRVQHYSMLNCAVNPQACKERANSLTPIIKSKKVLIVGGGVAGCEAARVLALRGHEPVLYEKSNRLGGNLIPGGAPSFKEDDIALADWYTNTLKELNVEVNLNSEVTKEQILNSKFDTVIVATGSTPKVFPLGDDEKVFTAAEVLLGQKDPGETTVVVGGGLVGCELALDLAKKGKKVTIVEALNKILALNGPLCSANSEMLQKLIPFNGIDVKANSKVKGYKNGLLKMETENGIEELPCDSVILSVGYKEENSLYKELEFEIPEIYLLGDARKVSNIMYGIWDAFEVANHI
B3: EREDCK: 2-enoate reductase (ERED) from Clostridium kluyveri DSM 555 (protein)
chain: MKNKSLFEPIKIGNMEVKNKIAMAPMGAFGLVDNECCFNQRAVDYYVERAKGGTGLIITSVVKVENELDKVLTGVLPITSINPAKFIMTSSEMTERVHAYGSKIFLQLSMGFGRSGAPGGLLTSQPVSASAVPNYWDPTVTCRELTTSEVEWIVEKFAEGAKIAHKAGFDGVEIHAVHEGYLLDQFTLSIFNRRTDKYGGDLRGRLQLPIEIVEAIKTEVGSNFPVGLRYSVKSCIKDWGQGGLAEEDYVEKGRDLEEGLEAAKILEAAGYDAFNADLGTYDAWYWAHPPLYQKDGLYLPYTKELKKVVKIPVMVAGKMGMPDVAEGALEDEAADMVTLGRPLLCDAYWPKKVFTGQIDRIRPCIGCHTGCMGRGFEGRPLSCTVNPAAGRERYYEVKPAAAPKKVMIVGGGVAGMEAARITAMRGHKVSMYEGTKELGGQVIPASVPDFKIDDRRLLDWYRNEMKELKVKLVLDTNVTEEVVEKEKPDVVIIATGAKEIKLNLPGIEKDKVATVIEVLKGSKQVGENVLMVGGGLAGCETALYLAKQGKKVTIIEARDTILNAGKPVPHMNKIMLIDLLKNSGVNIITETSLLEVTDRGAILIDNKFKKQNIDADTVVIAVGFKADRELYNKLRDKVADLYLVGDANESANIMNAIWSANEIALNC
B4: EREDCL: 2-enoate reductase (ERED) from Clostridium ljungdahlii DSM 13528 (protein)
chain: MKNKSLFQPIKIGKMEVKNKISMAPMGAFGLVDNEGCYNQRAIDYYVERAKGGTGLIITSITKVENELDKVVPGIIPVISTNPGRFLMTSSEMTERVHAYGAKIFLQLTMGFGRSGAPGTLLTSQPVSASDIPNYWDPTVTCRALTTSEVEWIVSKFIEGADIAQKADFDGVEIHAVHEGYLLDQFTLSIFNRRTDKYGGDLRGRLQLPIEIVQGIKARLGDDFPVGLRYSVKSCIKDWRQGGLPDEDYLEKGRDLKEGLDAAKILEAAGYDELNTDLGTYDAWYWSHPPIYQKNGLYLPYTKELKKVVKIPVIVAGKLGIPEDAEKALDDKAADMIGLGRPLLADPYWPKKVLSDNSERIRPCIGCHTGCLGRGFEGKPLSCTVNPAVGRERYYEIKPTLTPKKVMVVGGGVAGMEAARIIKMRGHDVTIYEGTDKLGGVIIPGSVPDFKVDDRRLIDWYKSEIKELEVKVNFNTKVTEELVEEEKPDVVIIATGAKEIKINVPGIEKDKVITALELLNDNKKVGNDVLMVGGGLVGCEAALYLAKQGKNVTIVEAKDTLLNSSKPIPHMNKIMLIDLLNMYNVKAITNNSLLEVTDKGAVLINNKFKKQEVSADTVTIAVGFKSDRELYNKLNGNIADLYLIGDAYQSANIMNAIWSANEIGLNC

Columns and labels:
[1] = Whole-cell aerobic biotransformation by E. coli expressing EREDs; assay type: cell-based; settings: 15 mM 2-hexenedioic acid, aerobic incubation, anaerobically grown cells
[2] = Whole-cell biotransformation of muconic acid by E. coli expressing EREDs; assay type: cell-based; settings: 0.7 mM, 24-hr incubation
Experimental: After a 24-hr incubation, no muconic acid or 2-hexenedioic acid were detected in the culture, and a 99% yield of adipic acid was obtained (FIGS. 8a, 8b, and 8c). […] The 3-hexenedioic acid-like compound appears to be an inefficient substrate for these EREDS. This is similar to the mutated 2,4-dienoyl-CoA reductases from E. coli, which catalyze hydrogenation of 2,4-dienoyl CoA into 3-enoyl CoA (Tu, X., Hubbard, P. A., Kim, J. J. P. & Schulz, H. Two distinct proton donors at the active site of Escherichia coli 2,4-dienoyl-CoA reductase are responsible for the formation of different products. Biochemistry 47, 1167-1175 (2008).).

Molecule | time to full conversion of 2-hexenedioic acid to adipic acid [1] | yield of adipic acid from cis,cis-muconic acid [2]
B1 | ≤ 20 min | –
B2 | ≤ 20 min | –
B3 | – | < 35%
B4 | – | < 35%
